In test [1] the test system is ReNCell VM. The test can be described thus: neuronal differentiation score (DCX+ cell fraction vs untreated, manual image score) (score (-3 to 3)); higher = more neuronal differentiation. The note with it: 2 uM, 2 weeks.
Test [2] has as its system ReNCell VM. As to the kind of experiment: dopaminergic neuron differentiation score (TH+ cell fraction vs untreated, manual image score) (score (0 to 3)); higher = more TH+ dopaminergic neuron differentiation. The note with it: 2 uM, 4 weeks, BDNF 10 ng/ml + GDNF 10 ng/ml.

We go through 32 compounds from the supplement of paper PMC4635364.

Structures can show the parent of a compound that is named as a salt. The list shows a part of the results. Repeats in this data set agree poorly, so a single value says little.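 ReNCell VM, a human fetal ventral-midbrain neural progenitor line, was differentiated without mitogens. Blinded raters scored images stained for doublecortin (early neurons) or tyrosine hydroxylase (dopaminergic neurons) against untreated wells (0 = no change). Scores were averaged across repeats and both raters, and compounds averaging 2 or more were selected as hits for retesting.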

As for `CCOC(=O)c1ncn2c1CN(C)C(=O)c1cc(N=[N+]=[N-])ccc1-2`, in test [1] (library: Tocriscreen), the neuronal differentiation score was inactive: 0. In test [2] (library: Tocriscreen), the “dopaminergic neuron differentiation score” value is inactive: 0.

For the compound `CC1Cc2cc3c(cc2C(c2ccc(N)cc2)=NN1)OCO3` (centres undefined), the neuronal differentiation score in test [1] (library: LOPAC) was inactive: 0. The “dopaminergic neuron differentiation score” value in test [2] (library: LOPAC) is inactive: 0.

Consider `CCN1C[C@]2(C)CC[C@H](OC)[C@@]34C1[C@]1(OCO[C@@]15C[C@H](OC)[C@H]1C[C@]3(O)[C@@H]5[C@H]1OC)[C@@H](OC(C)=O)[C@H]24` [Deltaline], for which the neuronal differentiation score in test [1] (library: Phytochemical) is inactive: 0. In addition, the “dopaminergic neuron differentiation score” value in test [2] (library: Phytochemical) is inactive: 0.

Take `C/C=C(/C)C(=O)O[C@H]1CC[C@@]2(C)[C@@H]3CC[C@H]4[C@]5(O)C[C@H](O)[C@@]6(O)[C@@H](CN7C[C@@H](C)CC[C@H]7[C@@]6(C)O)[C@]5(O)C[C@]42O[C@]13O`: the neuronal differentiation score in test [1] (library: Spectrum) was inactive: 0. Moreover, the “dopaminergic neuron differentiation score” value in test [2] (library: Spectrum) was inactive: 0.

Consider `COP(=S)(OC)Oc1ccc(SC)c(C)c1`, for which the neuronal differentiation score in test [1] (library: Spectrum) was inactive: 0. Besides, the “dopaminergic neuron differentiation score” value in test [2] (library: Spectrum) is inactive: 0.

For the compound `NC(C(=O)O)c1nn[nH]n1` (racemic) [(RS)-(Tetrazol-5-yl)glycine], the neuronal differentiation score in test [1] (library: Tocriscreen) was inactive: 0. Further, the “dopaminergic neuron differentiation score” value in test [2] (library: Tocriscreen) was inactive: 0.

Turning to `Cc1cccc(C)c1NC(=O)CN1CCCC1=O` [Nefiracetam], the neuronal differentiation score in test [1] (library: LOPAC) was inactive: 0. For the same compound, the “dopaminergic neuron differentiation score” value in test [2] (library: LOPAC) is inactive: 0.

As to `COc1cc2c(c(OC)c1OC)-c1ccc(OC)c(=O)cc1[C@@H](NC(C)=O)CC2`, in test [1] (library: Spectrum), the neuronal differentiation score was inactive: 0. Further, the “dopaminergic neuron differentiation score” value in test [2] (library: Spectrum) was inactive: 0.

With `C[C@H]1OC[C@@H](C[N+](C)(C)C)O1` [(+)-cis-Dioxolane], the neuronal differentiation score in test [1] (library: LOPAC) was inactive: 0. Moreover, in test [2] (library: LOPAC), the “dopaminergic neuron differentiation score” value was inactive: 0.

Take `COC1=C[C@@H]2[C@@H]3Cc4ccc(OC)c(O)c4[C@]2(CCN3C)CC1=O` [sinomenine]: in test [1] (library: Natural), the neuronal differentiation score was inactive: 0. Further, the “dopaminergic neuron differentiation score” value in test [2] (library: Natural) was inactive: 0.

With `CN1CC[C@@]2(C)c3cc(O)ccc3N(C)C12` (some centres undefined), the neuronal differentiation score in test [1] (library: Spectrum) is inactive: 0. Further, the “dopaminergic neuron differentiation score” value in test [2] (library: Spectrum) was inactive: 0.

Regarding `CC[C@@H](CO)NC(=O)[C@@H]1C=C2c3cccc4[nH]cc(c34)C[C@H]2N(C)C1`, the neuronal differentiation score in test [1] (library: Spectrum) was inactive: 0. Moreover, in test [2] (library: Spectrum), the “dopaminergic neuron differentiation score” value was inactive: 0.

For `CNC(=O)Oc1ccccc1OC(C)C`, in test [1] (library: Spectrum), the neuronal differentiation score is inactive: 0. Moreover, the “dopaminergic neuron differentiation score” value in test [2] (library: Spectrum) is inactive: 0.

Turning to `CC(C)NCC(O)c1ccc(N)c(C#N)c1` (centres undefined) [Cimaterol], the neuronal differentiation score in test [1] (library: Tocriscreen) is inactive: 0. Moreover, the “dopaminergic neuron differentiation score” value in test [2] (library: Tocriscreen) was inactive: 0.

For `CC1=C(O)C(=O)C=C2C1=CC=C1[C@@]2(C)CC[C@@]2(C)[C@@H]3C[C@](C)(C(=O)O)CC[C@]3(C)CC[C@]12C`, the neuronal differentiation score in test [1] (library: Spectrum) was inactive: 0. In addition, the “dopaminergic neuron differentiation score” value in test [2] (library: Spectrum) was inactive: 0.

Consider `CNc1ccccc1C(=O)O`, for which, in test [1] (library: Spectrum), the neuronal differentiation score is inactive: 0. For the same compound, the “dopaminergic neuron differentiation score” value in test [2] (library: Spectrum) was inactive: 1.

In the case of `Nc1ncn[nH]1`, the neuronal differentiation score in test [1] (library: Spectrum) is inactive: 0. For the same compound, the “dopaminergic neuron differentiation score” value in test [2] (library: Spectrum) was inactive: 0.

For `[N-]=[N+]=CC(=O)OC[C@H](N)C(=O)O`, the neuronal differentiation score in test [1] (library: Spectrum) is inactive: 0. Moreover, the “dopaminergic neuron differentiation score” value in test [2] (library: Spectrum) is inactive: 0.

Turning to `CC(=O)[C@H]1CC[C@H]2[C@@H]3CC[C@H]4C[C@H](O)CC[C@]4(C)[C@H]3C(=O)C[C@]12C` [Alfaxalone], the neuronal differentiation score in test [1] (library: Prestwick) is inactive: 0. Besides, in test [2] (library: Prestwick), the “dopaminergic neuron differentiation score” value was inactive: 0.

Regarding `CC(NC(C)(C)C)C(=O)c1cccc(Cl)c1` (centres undefined), the neuronal differentiation score in test [1] (library: Spectrum) was inactive: 0. In addition, in test [2] (library: Spectrum), the “dopaminergic neuron differentiation score” value is inactive: 0.

As for `C[C@]12CC[C@H]3[C@@H](CC[C@@]45O[C@@H]4C(O)=C(C#N)C[C@]35C)[C@@H]1CC[C@@H]2O`, the neuronal differentiation score in test [1] (library: Spectrum) was inactive: 0. Besides, in test [2] (library: Spectrum), the “dopaminergic neuron differentiation score” value is inactive: 0.

With `COc1ccc2[nH]cc(C3=CCNCC3)c2c1`, the neuronal differentiation score in test [1] (library: Tocriscreen) is inactive: 0. Besides, the “dopaminergic neuron differentiation score” value in test [2] (library: Tocriscreen) is inactive: 0.

On to `CCCCC1(C2CCCC2)Cc2cc(OCCCC(=O)O)c(Cl)c(Cl)c2C1=O` (centres undefined), for which, in test [1] (library: Tocriscreen), the neuronal differentiation score was inactive: 0. In addition, the “dopaminergic neuron differentiation score” value in test [2] (library: Tocriscreen) is inactive: 0.

For the compound `CC(C)[C@@H]1NC(=O)[C@H](C)OC(=O)[C@@H](C(C)C)NC(=O)[C@@H](C(C)C)OC(=O)[C@H](C(C)C)NC(=O)[C@H](C)OC(=O)[C@@H](C(C)C)NC(=O)[C@@H](C(C)C)OC(=O)[C@H](C(C)C)NC(=O)[C@H](C)OC(=O)[C@@H](C(C)C)NC(=O)[C@@H](C(C)C)OC1=O`, in test [1] (library: Spectrum), the neuronal differentiation score is inactive: 0. Further, in test [2] (library: Spectrum), the “dopaminergic neuron differentiation score” value is inactive: 0.

In the case of `CCN1C[C@]2(COC)CC[C@H](O)[C@@]34C5C[C@@H]6[C@@H](OC)C[C@](O)(C(CC23)C14)C5[C@H]6OC(C)=O` (some centres undefined) [Condelphine], the neuronal differentiation score in test [1] (library: Phytochemical) is inactive: 0. Moreover, the “dopaminergic neuron differentiation score” value in test [2] (library: Phytochemical) is inactive: 0.

Consider `COC(=O)C(c1ccccc1)C1CCCCN1` (centres undefined), for which the neuronal differentiation score in test [1] (library: Spectrum) was inactive: 0. The “dopaminergic neuron differentiation score” value in test [2] (library: Spectrum) was inactive: 0.

For `CN1CC[C@@H]2CN3CCc4cccc(c43)[C@@H]2C1` [SDZ SER 082 fumarate], the neuronal differentiation score in test [1] (library: Tocriscreen) was inactive: 0. Besides, the “dopaminergic neuron differentiation score” value in test [2] (library: Tocriscreen) was inactive: 0.

For `NCc1cc(O)no1` [Muscimol hydrobromide], the neuronal differentiation score in test [1] (library: LOPAC) is inactive: 0. Besides, the “dopaminergic neuron differentiation score” value in test [2] (library: LOPAC) is inactive: 0.

As for `CC(C)C[C@H](CN)CC(=O)O`, the neuronal differentiation score in test [1] (library: Spectrum) was inactive: 0. Moreover, the “dopaminergic neuron differentiation score” value in test [2] (library: Spectrum) is inactive: 0.

In the case of `C[C@]12CCC(=O)C=C1CCc1ccc(O)cc12`, in test [1] (library: Spectrum), the neuronal differentiation score was inactive: 0. In test [2] (library: Spectrum), the “dopaminergic neuron differentiation score” value was inactive: 0.

Consider `CC(C)C[C@H]1C(=O)N2CCC[C@H]2[C@]2(O)O[C@](NC(=O)[C@@H]3C=C4c5cccc6[nH]c(Br)c(c56)C[C@H]4N(C)C3)(C(C)C)C(=O)N12`, for which the neuronal differentiation score in test [1] (library: Spectrum) is inactive: 0. Besides, the “dopaminergic neuron differentiation score” value in test [2] (library: Spectrum) was inactive: 0.

For the compound `C=C/C=C\CC1=C(C)[C@@H](OC(=O)[C@@H]2[C@@H](/C=C(\C)C(=O)OC)C2(C)C)CC1=O.C=C/C=C\CC1=C(C)[C@@H](OC(=O)[C@@H]2[C@@H](C=C(C)C)C2(C)C)CC1=O`, the neuronal differentiation score in test [1] (library: Spectrum) is inactive: 0. Besides, the “dopaminergic neuron differentiation score” value in test [2] (library: Spectrum) is inactive: 0.
